Among the data in article PMC5004123 are binding values, retold here.

By UniProt entry, the sequences of proteins in these tests, tags left out. Residues count along the entry.
UniProt Q62151, residues 23-402: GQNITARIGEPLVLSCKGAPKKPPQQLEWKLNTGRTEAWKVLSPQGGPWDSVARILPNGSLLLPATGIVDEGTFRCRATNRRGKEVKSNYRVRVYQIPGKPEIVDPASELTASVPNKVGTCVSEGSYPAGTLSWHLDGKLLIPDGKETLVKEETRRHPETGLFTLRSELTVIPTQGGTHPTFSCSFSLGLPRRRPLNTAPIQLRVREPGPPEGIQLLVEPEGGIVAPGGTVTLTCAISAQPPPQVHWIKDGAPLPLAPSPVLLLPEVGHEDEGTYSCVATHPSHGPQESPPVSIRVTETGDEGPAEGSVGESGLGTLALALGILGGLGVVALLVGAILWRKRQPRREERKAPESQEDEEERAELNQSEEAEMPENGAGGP

These are yes or no findings as the source states them, for the method shown. Binding seen in cells or lysates may run through a third protein. Some entries that bind do so weakly or less than the wild type.

The assay addresses receptor for advanced glycation end products (RAGE) (mouse (endogenous in MLVECs)) (UniProt Q62151). The assay is described as follows: co-IP; MLVECs cultured with or without 100 ng/mL HMGB1 for 1 h; lysed in RIPA buffer; lysates pre-cleared with normal IgG and Protein A+G Agarose beads, then incubated with anti-Cav-1 or anti-RAGE antibodies and Protein A+G Agarose beads overnight at 4 °C; 3 washes with PBS; immunoblotting. In general terms: A western blot detects proteins with antibodies after separation by electrophoresis.

B1: caveolin (Cav)-1 (protein, UniProt P49817 1-178)
chain: MSGGKYVDSEGHLYTVPIREQGNIYKPNNKAMADEVTEKQVYDAHTKEIDLVNRDPKHLNDDVVKIDFEDVIAEPEGTHSFDGIWKASFTTFTVTKYWFYRLLSTIFGIPMALIWGIYFAILSFLHIWAVVPCIKSFLIEIQCISRVYSIYVHTFCDPLFEAIGKIFSNIRISTQKEI
With B1, the binding entry was “binds”.
